Values of other authors, collected in US10662445B2, “Process for the production of bio-butanol by fermentation of glycosidic waste matter” (priority 2018, dated 2020).
Like-named read-outs stand apart in the source and are kept apart here.

What was measured:
[1] = test system: Mixed culture wastewater plant; settings: aqueous-organic 9:1, cited from earlier work
[2] = test system: Pseudomonas mandelii; settings: 2-Undecanone, diethyl sebacate; 3:1; 4000-5000 mg/L; cited from earlier work
[3] = test system: Pseudomonas putida ATCC 11172; settings: 2-undecanone; 2:1; 4000 mg/L (168 in the aqueous phase); cited from earlier work

O=[N+]([O-])c1ccc(O)cc1 [4-nitrophenol]
Time to biodegrade ([1]; 2-undecanone, 350 mg/L): 7 h

Oc1ccccc1 [Phenol]
Lag-phase [2]: 24 h lag-phase,
Time to total consumption [2]: Total consumption in 75 h
Lag-phase [3]: 12 h lag-phase;
Time to total consumption [3]: Total consumption in 60 hours

C=Cc1ccccc1 [Styrene]
Time to biodegrade ([1]; Silicone oil, 230 mg/L): 5 h
